Assay results: article PMC8754647, “A minimal motif for sequence recognition by mitochondrial transcription factor A (TFAM)”
For some assays here: A weaker result is weaker than the reference pair of the same experiment. Where a protein sequence is shown, tags need not be part of it. For some assays here: Construct, isoform or probe ends are uncertain for at least one entry.

What was measured:
TFAM [1] = molecular target: T1, TFAM (UniProt Q00059); assay: EMSA; settings: 500 mM NaCl, apparent Kd; EMSA: 10 mM HEPES pH 8.0, 500 mM NaCl, 2 mM DTT, 130 ug/ml BSA, 5% glycerol, 100 nM DNA, 30 min on ice then 10 min RT; recombinant protein; protein details: His-MBP N-terminal, removed by TEV; label: 5'-Cy3 on strand 1 (EMSA), 6-FAM (FP)
T1 sequence (looked up, limits assumed): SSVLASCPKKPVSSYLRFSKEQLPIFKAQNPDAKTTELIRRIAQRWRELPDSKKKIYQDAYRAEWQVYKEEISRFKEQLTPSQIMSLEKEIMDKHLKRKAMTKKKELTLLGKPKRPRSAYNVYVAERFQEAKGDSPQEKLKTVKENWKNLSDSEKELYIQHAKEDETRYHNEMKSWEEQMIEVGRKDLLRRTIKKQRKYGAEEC

TFAM [2] = molecular target: T1, TFAM; assay: EcoRI cleavage protection; settings: 10 mM MgCl2, 50 mM NaCl, less protection than DNA2GG at low TFAM/DNA, mostly protected at high ratio; EcoRI protection: 10 mM Tris-HCl pH 7.9, 10 mM MgCl2, 50 mM NaCl, 100 ug/ml BSA, 100 nM DNA, 30 min on ice then EcoRI 15 min 37 C; recombinant protein; protein details: His-MBP N-terminal, removed by TEV

Sequence | Kd (TFAM [1]) [nM] | binding result (TFAM [2])
AAAAAGAATCATTTGGATATATAGGTAT (double strand) [DNAAA] | 162 | 
CTGAAGCCAGTTACCTTTGAAAAAAGAGTTGGTAGCTCTTGATCTAGGAATTCAATCACCGCTGGTAGCGGTGGTTTTTTTATTTGCAAGCAGCAGATTA (double strand) [DNA2AA] |  | binds more weakly
